The list shows only some results of the screen, not a fair sample: it is rich in T/C values a quarter to a half above the control, in often repeated tests (any T/C) and in doses without a T/C. Further doses and runs are listed elsewhere. T/C: endpoint of the treated group in % of that of the vehicle group. Some doses have a count of surviving animals in place of a T/C: the source files T/C as zero there, which appears to mark a toxic dose or a test without result, not a measured value. Some doses without a T/C left all or most animals alive at the check, yet need not have been tolerated: survival well below the control is almost never listed, so the zero probably covers shortened survival too. Survivors were counted at the toxicity check, usually on the fifth day, unless a day is given; later deaths do not show. Schedules are NCI's codes, read here as Q, the interval in days (D) or hours (H), X, the number of doses. Some schedule codes hold Z or #, which are not explained here. Where survival is the endpoint, the PubChem record calls one and a half times the control and up active, and a quarter to a half above the control has no call in these data; cut-offs in other NCI protocols can differ. Some T/C values carry the count of animals alive at the toxicity check (mostly the fifth day); where none is given, no animal had died by that day.
Test system: L1210 leukemia ip in BDF1 mice, survival T/C
Experiment: NCI In Vivo Anticancer Drug Screen. Data for tumor model L1210 Leukemia (intraperitoneal) in B6D2F1 (BDF1) mice
Conditions: T/C endpoint: mean survival time, higher T/C = longer survival

Q: What does the source list for `[N-]=[N+]=CC(=O)CCC(N)C(=O)O` (configuration not stated)?
A: T/C (dose: 0.05 mg/kg/injection, schedule: Q01DX015 (ip), vehicle: water): 131 % of control; T/C (dose: 0.1 mg/kg/injection, schedule: Q01DX009 (ip), vehicle: saline): 136 % of control; T/C (dose: 0.1 mg/kg/injection, schedule: Q01DX009 (oral), vehicle: saline): 132 % of control; T/C (dose: 0.1 mg/kg/injection, schedule: Q01DX015 (ip), vehicle: water): 125 % of control; T/C (dose: 0.12 mg/kg/injection, schedule: Q01DX009 (oral), vehicle: saline): 140 % of control; T/C (dose: 0.16 mg/kg/injection, schedule: Q02DX008 (ip), vehicle: water): 127 % of control; T/C (dose: 0.2 mg/kg/injection, schedule: Q02DX005 (oral), vehicle: saline): 140 % of control; T/C (dose: 0.31 mg/kg/injection, schedule: Q02DX008 (ip), vehicle: water): 139 % of control; T/C (dose: 0.31 mg/kg/injection, schedule: Q02DX008 (oral), vehicle: water): 143 % of control; T/C (dose: 0.39 mg/kg/injection, schedule: Q03HX008 (ip), vehicle: saline): 131 % of control; T/C (dose: 0.4 mg/kg/injection, schedule: Q01DX009 (oral), vehicle: saline): 136 % of control; survivor count (dose: 0.4 mg/kg/injection, schedule: Q01DX015 (ip), vehicle: other): 6 of 6; T/C (dose: 0.5 mg/kg/injection, schedule: Q01DX009 (oral), vehicle: saline): 132 % of control; survivor count (dose: 0.6 mg/kg/injection, schedule: Q01DX015 (ip), vehicle: other): 6 of 6; T/C (dose: 0.62 mg/kg/injection, schedule: Q02DX008 (ip), vehicle: other): 138 % of control; T/C (dose: 0.63 mg/kg/injection, schedule: Q02DX008 (oral), vehicle: water): 147 % of control; T/C (dose: 0.78 mg/kg/injection, schedule: Q03HX008 (ip), vehicle: saline): 130 % of control; survivor count (dose: 0.8 mg/kg/injection, schedule: Q01DX009 (oral), vehicle: saline): 10 of 10; survivor count (dose: 0.8 mg/kg/injection, schedule: Q01DX015 (ip), vehicle: other): 6 of 6; T/C (dose: 1.25 mg/kg/injection, schedule: Q02DX008 (ip), vehicle: other): 142 % of control; T/C (dose: 1.56 mg/kg/injection, schedule: Q03HX008 (ip), vehicle: saline): 138 % of control [9 of 10 alive]; T/C (dose: 1.56 mg/kg/injection, schedule: Q04DX003 (ip), vehicle: saline): 142 % of control; T/C (dose: 3.12 mg/kg/injection, schedule: Q03HX008 (ip), vehicle: saline): 130 % of control; T/C (dose: 3.12 mg/kg/injection, schedule: Q03HX016 (ip), vehicle: saline): 146 % of control; T/C (dose: 3.12 mg/kg/injection, schedule: Q08DX002 (ip), vehicle: saline): 140 % of control; T/C (dose: 6.25 mg/kg/injection, schedule: Q08DX002 (ip), vehicle: saline): 142 % of control; T/C (dose: 10.0 mg/kg/injection, schedule: Q02DX008 (ip), vehicle: other): 147 % of control [5 of 6 alive]; survivor count (dose: 25.0 mg/kg/injection, schedule: Q## X024 (ip), vehicle: saline): 3 of 10; T/C (dose: 50.0 mg/kg/injection, schedule: Q01DX001 (ip), vehicle: saline): 149 % of control; T/C (dose: 50.0 mg/kg/injection, schedule: Q01DX001 (ip), vehicle: water): 139 % of control; T/C (dose: 50.0 mg/kg/injection, schedule: Q## X003 (ip), vehicle: saline): 134 % of control [9 of 10 alive]; survivor count (dose: 50.0 mg/kg/injection, schedule: Q## X008 (ip), vehicle: saline): 6 of 10; survivor count (dose: 50.0 mg/kg/injection, schedule: Q## X024 (ip), vehicle: saline): 0 of 10; T/C (dose: 100.0 mg/kg/injection, schedule: Q01DX001 (ip), vehicle: water): 142 % of control; T/C (dose: 100.0 mg/kg/injection, schedule: Q01DX001 (oral), vehicle: saline): 147 % of control; survivor count (dose: 100.0 mg/kg/injection, schedule: Q## X008 (ip), vehicle: saline): 3 of 10; survivor count (dose: 100.0 mg/kg/injection, schedule: Q## X016 (ip), vehicle: saline): 0 of 10; survivor count (dose: 100.0 mg/kg/injection, schedule: Q## X024 (ip), vehicle: saline): 5 of 10; T/C (dose: 150.0 mg/kg/injection, schedule: Q01DX001 (ip), vehicle: water): 144 % of control; T/C (dose: 200.0 mg/kg/injection, schedule: Q01DX001 (oral), vehicle: saline): 131 % of control [8 of 10 alive]; survivor count (dose: 200.0 mg/kg/injection, schedule: Q## X003 (ip), vehicle: saline): 0 of 10; survivor count (dose: 200.0 mg/kg/injection, schedule: Q## X008 (ip), vehicle: saline): 3 of 10; survivor count (dose: 200.0 mg/kg/injection, schedule: Q## X016 (ip), vehicle: saline): 3 of 10; survivor count (dose: 200.0 mg/kg/injection, schedule: Q## X024 (ip), vehicle: saline): 2 of 10; survivor count (dose: 250.0 mg/kg/injection, schedule: Q01DX001 (ip), vehicle: water): 3 of 4; survivor count (dose: 300.0 mg/kg/injection, schedule: Q01DX001 (ip), vehicle: water): 4 of 4; survivor count (dose: 400.0 mg/kg/injection, schedule: Q01DX001 (ip), vehicle: saline): 8 of 10; survivor count (dose: 400.0 mg/kg/injection, schedule: Q01DX001 (oral), vehicle: saline): 8 of 10; survivor count (dose: 400.0 mg/kg/injection, schedule: Q## X008 (ip), vehicle: saline): 2 of 10; survivor count (dose: 400.0 mg/kg/injection, schedule: Q## X016 (ip), vehicle: saline): 2 of 10; survivor count (dose: 800.0 mg/kg/injection, schedule: Q01DX001 (oral), vehicle: saline): 1 of 10; T/C (dose: 100.0 micrograms/kg/injection, schedule: Q01DX010 (ip), vehicle: saline): 138 % of control; T/C (dose: 200.0 micrograms/kg/injection, schedule: Q01DX010 (ip), vehicle: saline): 140 % of control

Q: `ClCCNCc1cccc(Nc2ccnc3cc(Cl)ccc23)c1` was tested. Which survivor count (dose: 300.0 mg/kg/injection, schedule: Q01DX001 (ip), vehicle: carboxymethylcellulose (CMC)) did it give?
A: 2 of 6

Q: How did the survivor count (dose: 100.0 mg/kg/injection, schedule: Q04DX003 (ip), vehicle: saline with Tween-80) turn out when `Brc1ccc(-c2csc3cccc[n+]23)cc1` was run?
A: 0 of 6

Q: And the survivor count (dose: 200.0 mg/kg/injection, schedule: Q04DX003 (ip), vehicle: saline with Tween-80)?
A: 0 of 6

Q: What about the survivor count (dose: 400.0 mg/kg/injection, schedule: Q04DX003 (ip), vehicle: saline with Tween-80) of the same compound?
A: 0 of 6

Q: How did the survivor count (dose: 400.0 mg/kg/injection, schedule: Q01DX009 (ip), vehicle: acetone) turn out when `CN(C)CCC(O)Cc1ccccc1` (configuration not stated) was run?
A: 0 of 6

Q: How did the survivor count (dose: 200.0 mg/kg/injection, schedule: Q01DX009 (ip), vehicle: saline with Tween-80) turn out when `CC(=O)Nc1ccc(S(=O)(=O)NC(C)=O)cc1` was run?
A: 6 of 6

Q: Which survivor count (dose: 400.0 mg/kg/injection, schedule: Q01DX009 (ip), vehicle: saline with Tween-80) does the source give for `Cc1ccc2[nH]c(=O)oc(=O)c2c1` here?
A: 6 of 6

Q: For `Cn1nc(N)c2cc(C(N)=O)c(N)nc21`, which survivor count (dose: 200.0 mg/kg/injection, schedule: Q01DX009 (ip), vehicle: Klucel (hydroxypropylcellulose) (HPC)) is on record?
A: 6 of 6

Q: For `O=C(CCCN1CCC(O)CC1)c1ccccc1`, which survivor count (dose: 400.0 mg/kg/injection, schedule: Q04DX003 (ip), vehicle: saline) is on record?
A: 1 of 6
